From US12208159B2, “Compositions, methods and kits for treating a contact lens” (University of Houston System, priority 2016, dated 2025)

The compounds below were run on human telomerase corneal epithelial cells (hTCEpi).
Assay type: cell-based
Procedure: Telomerase modified human corneal epithelial cells were seeded into wells of a 96 well plate with […] KGM-2 medium (Lonza Ltd, Switzerland) and incubated at 37° C. until ˜80% confluence. […] Cells treated with 0.05% benzalkonium chloride (BAC) and without any treatment served as controls. The plate was incubated at 37° C. for 18 h, and cell viability was determined using a cell counting kit-8 assay. […] All lenses are taken out, and cell viability was determined using a cell counting kit-8 assay (Dojindo Molecular Technologies, Inc. Japan).

Compound | toxicity of loaded lenses compared to cells incubated with untreated lenses
O=C(O)c1cn(C2CC2)c2cc(N3CCN(C(=O)C(F)(F)C(F)(F)C(F)(F)F)CC3)c(F)cc2c1=O [Compound 8] | no significant difference in toxicity
O=C(O)c1cn(C2CC2)c2cc(N3CCN(C(=O)C(F)(F)C(F)(F)C(F)(F)C(F)(F)F)CC3)c(F)cc2c1=O [Compound 9] | no significant difference in toxicity
O=C(O)c1cn(C2CC2)c2cc(N3CCNCC3)c(F)cc2c1=O [Compound 12, Ciprofloxacin] | no significant difference in toxicity
